Where a name gives a salt, the structure may show the parent alone. This is one part of the list. Hit calls seldom repeat between salt and free forms of one compound.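 Kinases, fused to nanoluciferase, were expressed in K562 cells; luminescence was measured every 4 h from 2 to 18 h as percent of control (DMSO = 100%, positive control = 0%). A time point is decreased if signal falls significantly (2 sigma). Hits were called by the authors by a rule that is not shown; the count of time points alone does not decide it.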
How the values were obtained:
Conditions in all cases: K562; 2-18 h
[1] = molecular target: ROR2 (UniProt Q01974); experiment: number of time points (of 5) at which kinase-Nluc abundance scored as decreased, DMSO-normalised (count); higher = more persistent destabilization
[2] = molecular target: RPS6KA1 (UniProt Q15418); experiment: as above
[3] = molecular target: SPHK1 (UniProt Q9NYA1); experiment: as above
[4] = molecular target: SRC (UniProt P12931); experiment: as above
[5] = molecular target: STK24 (UniProt Q9Y6E0); experiment: as above
[6] = molecular target: STK38 (UniProt Q15208); experiment: as above
[7] = molecular target: SYK (UniProt P43405); experiment: as above
[8] = molecular target: TEC (UniProt P42680); experiment: as above
[9] = molecular target: TYK2 (UniProt P29597); experiment: as above
[10] = molecular target: ULK3 (UniProt Q6PHR2); experiment: as above
[11] = molecular target: YES1 (UniProt P07947); experiment: as above
[12] = molecular target: ZAK (UniProt Q9NYL2); experiment: as above
[13] = molecular target: ZAP70 (UniProt P43403); experiment: as above
[14] = molecular target: CDK4 (UniProt P11802); experiment: number of time points (of 4; 2 h point missing) at which kinase-Nluc abundance scored as decreased, DMSO-normalised (count); higher = more persistent destabilization
[15] = molecular target: CDK7 (UniProt P50613); experiment: as above
[16] = molecular target: CDK9 (UniProt P50750); experiment: as above

Sequences of proteins named here, by UniProt entry; tags and fusion partners are left off. A change or cut given only in a name is not applied to a line headed by its entry.
UniProt Q01974, whole entry: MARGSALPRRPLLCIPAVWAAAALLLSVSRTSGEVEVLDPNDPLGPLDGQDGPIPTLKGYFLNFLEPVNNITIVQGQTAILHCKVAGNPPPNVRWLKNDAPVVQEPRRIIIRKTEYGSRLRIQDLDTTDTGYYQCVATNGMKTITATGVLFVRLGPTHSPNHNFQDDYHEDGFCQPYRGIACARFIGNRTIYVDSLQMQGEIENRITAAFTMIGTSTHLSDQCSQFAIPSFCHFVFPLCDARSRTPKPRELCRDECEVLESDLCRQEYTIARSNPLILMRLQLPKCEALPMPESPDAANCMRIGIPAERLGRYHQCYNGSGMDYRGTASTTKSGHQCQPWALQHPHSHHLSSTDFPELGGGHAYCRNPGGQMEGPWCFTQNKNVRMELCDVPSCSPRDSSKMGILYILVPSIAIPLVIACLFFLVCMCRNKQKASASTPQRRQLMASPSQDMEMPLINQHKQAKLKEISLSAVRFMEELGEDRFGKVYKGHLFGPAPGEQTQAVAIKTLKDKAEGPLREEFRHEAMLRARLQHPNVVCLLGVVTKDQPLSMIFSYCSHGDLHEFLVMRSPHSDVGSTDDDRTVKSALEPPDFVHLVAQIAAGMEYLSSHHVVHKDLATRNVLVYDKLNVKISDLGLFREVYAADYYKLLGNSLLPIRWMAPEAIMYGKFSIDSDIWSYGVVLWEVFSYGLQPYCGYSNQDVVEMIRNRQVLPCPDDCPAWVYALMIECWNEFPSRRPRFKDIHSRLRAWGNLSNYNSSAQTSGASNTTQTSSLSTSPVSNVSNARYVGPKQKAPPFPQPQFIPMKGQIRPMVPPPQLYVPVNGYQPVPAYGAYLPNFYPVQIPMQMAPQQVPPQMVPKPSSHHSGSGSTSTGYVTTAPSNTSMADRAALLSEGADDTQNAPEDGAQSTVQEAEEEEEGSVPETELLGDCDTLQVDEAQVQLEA
UniProt Q15418, whole entry: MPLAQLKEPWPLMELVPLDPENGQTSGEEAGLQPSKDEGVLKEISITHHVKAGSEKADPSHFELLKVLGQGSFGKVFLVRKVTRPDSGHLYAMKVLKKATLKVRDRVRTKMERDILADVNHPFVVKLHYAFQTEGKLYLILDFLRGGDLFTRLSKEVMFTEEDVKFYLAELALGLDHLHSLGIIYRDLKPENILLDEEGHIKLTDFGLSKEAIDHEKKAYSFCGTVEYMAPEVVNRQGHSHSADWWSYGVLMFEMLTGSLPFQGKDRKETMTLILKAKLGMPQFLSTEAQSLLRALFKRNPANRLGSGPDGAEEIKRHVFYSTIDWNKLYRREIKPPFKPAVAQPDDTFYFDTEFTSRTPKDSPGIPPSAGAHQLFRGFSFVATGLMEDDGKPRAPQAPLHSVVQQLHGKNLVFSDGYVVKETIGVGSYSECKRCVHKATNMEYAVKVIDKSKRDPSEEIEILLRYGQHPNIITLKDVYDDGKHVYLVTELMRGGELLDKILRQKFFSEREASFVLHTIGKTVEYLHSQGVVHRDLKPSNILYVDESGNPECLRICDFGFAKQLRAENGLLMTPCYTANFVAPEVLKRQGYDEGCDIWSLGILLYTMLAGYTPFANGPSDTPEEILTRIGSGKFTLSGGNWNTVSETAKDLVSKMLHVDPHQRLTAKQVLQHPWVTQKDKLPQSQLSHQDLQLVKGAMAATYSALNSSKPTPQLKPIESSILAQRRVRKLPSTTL
UniProt Q9NYA1, whole entry: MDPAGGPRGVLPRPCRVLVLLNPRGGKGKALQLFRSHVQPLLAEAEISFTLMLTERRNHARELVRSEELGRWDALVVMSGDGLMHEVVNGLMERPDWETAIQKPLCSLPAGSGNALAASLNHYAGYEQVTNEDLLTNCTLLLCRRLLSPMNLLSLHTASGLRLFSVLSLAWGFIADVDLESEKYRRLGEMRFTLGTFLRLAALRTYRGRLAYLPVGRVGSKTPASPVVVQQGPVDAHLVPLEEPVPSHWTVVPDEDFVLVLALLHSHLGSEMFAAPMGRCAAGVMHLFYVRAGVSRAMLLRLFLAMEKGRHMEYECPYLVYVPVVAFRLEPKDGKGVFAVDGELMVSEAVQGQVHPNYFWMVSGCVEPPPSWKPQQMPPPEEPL
UniProt Q9Y6E0: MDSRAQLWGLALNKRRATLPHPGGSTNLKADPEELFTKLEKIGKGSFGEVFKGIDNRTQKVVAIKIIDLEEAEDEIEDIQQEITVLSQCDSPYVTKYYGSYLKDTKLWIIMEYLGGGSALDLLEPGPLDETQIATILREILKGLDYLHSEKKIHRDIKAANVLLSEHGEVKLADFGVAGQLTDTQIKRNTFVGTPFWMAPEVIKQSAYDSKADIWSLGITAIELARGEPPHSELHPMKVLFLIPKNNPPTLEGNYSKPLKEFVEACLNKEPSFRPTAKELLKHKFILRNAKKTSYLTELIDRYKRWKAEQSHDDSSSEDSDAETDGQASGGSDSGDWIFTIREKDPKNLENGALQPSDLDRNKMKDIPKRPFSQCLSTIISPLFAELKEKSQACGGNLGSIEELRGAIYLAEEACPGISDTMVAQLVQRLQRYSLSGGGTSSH
UniProt Q15208: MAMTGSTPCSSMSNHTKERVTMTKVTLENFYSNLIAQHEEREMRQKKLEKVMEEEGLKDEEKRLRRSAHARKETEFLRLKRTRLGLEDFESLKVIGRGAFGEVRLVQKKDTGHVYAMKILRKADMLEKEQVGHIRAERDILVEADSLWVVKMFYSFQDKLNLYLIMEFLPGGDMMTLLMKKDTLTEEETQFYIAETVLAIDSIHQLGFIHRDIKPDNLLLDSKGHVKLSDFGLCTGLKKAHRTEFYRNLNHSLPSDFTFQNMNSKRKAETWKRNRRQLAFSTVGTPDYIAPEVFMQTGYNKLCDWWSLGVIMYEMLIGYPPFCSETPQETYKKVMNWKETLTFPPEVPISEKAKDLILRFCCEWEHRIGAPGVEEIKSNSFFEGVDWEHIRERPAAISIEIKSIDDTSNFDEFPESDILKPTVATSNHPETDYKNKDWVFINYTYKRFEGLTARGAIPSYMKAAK
UniProt P42680: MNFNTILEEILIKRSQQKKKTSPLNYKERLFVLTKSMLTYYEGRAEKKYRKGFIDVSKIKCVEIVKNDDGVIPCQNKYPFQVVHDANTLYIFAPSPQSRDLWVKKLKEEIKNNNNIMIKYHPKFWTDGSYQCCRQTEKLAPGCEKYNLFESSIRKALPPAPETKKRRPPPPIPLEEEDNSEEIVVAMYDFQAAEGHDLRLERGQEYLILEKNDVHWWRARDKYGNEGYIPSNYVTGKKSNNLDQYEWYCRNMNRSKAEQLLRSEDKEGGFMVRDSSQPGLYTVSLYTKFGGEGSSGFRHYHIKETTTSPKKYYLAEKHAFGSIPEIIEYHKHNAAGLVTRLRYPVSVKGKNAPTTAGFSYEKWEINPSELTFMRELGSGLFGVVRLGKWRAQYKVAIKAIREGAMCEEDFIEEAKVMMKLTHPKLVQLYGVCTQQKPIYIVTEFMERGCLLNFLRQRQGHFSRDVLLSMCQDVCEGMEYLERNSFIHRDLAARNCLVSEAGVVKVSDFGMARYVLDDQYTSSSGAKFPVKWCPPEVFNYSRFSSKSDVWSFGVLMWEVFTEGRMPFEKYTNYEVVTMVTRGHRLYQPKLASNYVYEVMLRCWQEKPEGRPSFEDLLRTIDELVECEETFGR
UniProt Q6PHR2: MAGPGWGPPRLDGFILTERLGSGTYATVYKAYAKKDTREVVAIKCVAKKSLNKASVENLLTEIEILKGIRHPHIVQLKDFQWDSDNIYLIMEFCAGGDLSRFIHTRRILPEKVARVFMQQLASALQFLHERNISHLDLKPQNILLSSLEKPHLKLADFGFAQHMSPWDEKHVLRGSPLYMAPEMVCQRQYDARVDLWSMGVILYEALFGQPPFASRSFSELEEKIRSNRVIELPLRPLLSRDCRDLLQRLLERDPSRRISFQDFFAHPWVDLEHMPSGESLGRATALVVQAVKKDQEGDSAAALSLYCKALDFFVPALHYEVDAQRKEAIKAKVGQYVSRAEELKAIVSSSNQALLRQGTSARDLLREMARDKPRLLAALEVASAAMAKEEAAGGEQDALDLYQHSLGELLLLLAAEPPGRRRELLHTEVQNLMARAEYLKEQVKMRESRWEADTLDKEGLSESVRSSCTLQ
UniProt P07947, whole entry, looked up: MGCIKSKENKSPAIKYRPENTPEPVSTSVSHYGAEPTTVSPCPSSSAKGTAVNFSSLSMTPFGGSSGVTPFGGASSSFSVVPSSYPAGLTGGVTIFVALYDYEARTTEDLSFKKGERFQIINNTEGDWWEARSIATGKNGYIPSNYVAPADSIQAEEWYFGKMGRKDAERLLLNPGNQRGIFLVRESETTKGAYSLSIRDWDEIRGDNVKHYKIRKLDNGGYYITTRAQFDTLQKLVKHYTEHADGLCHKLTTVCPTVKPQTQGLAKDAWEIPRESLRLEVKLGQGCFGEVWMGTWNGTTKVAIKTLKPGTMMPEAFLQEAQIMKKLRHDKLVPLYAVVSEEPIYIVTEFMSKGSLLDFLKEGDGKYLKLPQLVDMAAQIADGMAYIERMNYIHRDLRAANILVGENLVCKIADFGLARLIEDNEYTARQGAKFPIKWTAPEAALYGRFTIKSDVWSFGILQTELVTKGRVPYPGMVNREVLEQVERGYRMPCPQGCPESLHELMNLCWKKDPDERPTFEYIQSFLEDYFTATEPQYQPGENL
UniProt P43403: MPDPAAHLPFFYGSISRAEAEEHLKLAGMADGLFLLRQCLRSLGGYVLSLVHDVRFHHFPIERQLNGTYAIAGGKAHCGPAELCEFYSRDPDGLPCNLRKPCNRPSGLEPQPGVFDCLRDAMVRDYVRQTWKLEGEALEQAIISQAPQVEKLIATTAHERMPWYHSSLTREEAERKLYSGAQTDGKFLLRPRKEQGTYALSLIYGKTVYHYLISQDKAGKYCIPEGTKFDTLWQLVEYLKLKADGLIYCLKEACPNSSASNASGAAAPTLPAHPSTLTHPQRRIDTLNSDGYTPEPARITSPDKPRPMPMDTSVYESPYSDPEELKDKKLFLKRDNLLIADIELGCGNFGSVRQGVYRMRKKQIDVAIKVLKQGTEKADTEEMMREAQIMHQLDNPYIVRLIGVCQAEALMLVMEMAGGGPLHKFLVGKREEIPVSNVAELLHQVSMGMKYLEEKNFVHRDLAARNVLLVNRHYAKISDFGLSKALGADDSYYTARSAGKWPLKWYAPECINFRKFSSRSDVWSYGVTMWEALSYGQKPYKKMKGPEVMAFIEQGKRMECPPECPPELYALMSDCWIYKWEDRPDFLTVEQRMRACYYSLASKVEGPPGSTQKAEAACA
UniProt P11802: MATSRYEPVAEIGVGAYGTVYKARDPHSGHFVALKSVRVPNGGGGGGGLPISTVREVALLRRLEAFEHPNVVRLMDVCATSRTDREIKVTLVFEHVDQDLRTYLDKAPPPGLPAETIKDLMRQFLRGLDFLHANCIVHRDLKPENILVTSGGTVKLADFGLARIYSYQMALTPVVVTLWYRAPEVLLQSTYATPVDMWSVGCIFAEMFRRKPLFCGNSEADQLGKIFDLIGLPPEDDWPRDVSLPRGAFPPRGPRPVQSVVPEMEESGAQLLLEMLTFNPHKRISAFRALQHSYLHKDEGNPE
UniProt P50613: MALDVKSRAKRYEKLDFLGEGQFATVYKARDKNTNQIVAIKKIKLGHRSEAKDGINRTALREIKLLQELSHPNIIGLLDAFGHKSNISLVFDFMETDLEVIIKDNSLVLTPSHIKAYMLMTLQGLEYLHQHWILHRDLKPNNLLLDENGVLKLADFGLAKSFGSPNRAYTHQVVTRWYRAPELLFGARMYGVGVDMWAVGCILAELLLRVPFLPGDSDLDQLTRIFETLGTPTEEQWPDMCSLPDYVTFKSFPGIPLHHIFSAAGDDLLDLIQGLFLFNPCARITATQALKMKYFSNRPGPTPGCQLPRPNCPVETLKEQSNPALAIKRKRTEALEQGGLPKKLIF
UniProt P50750, whole entry: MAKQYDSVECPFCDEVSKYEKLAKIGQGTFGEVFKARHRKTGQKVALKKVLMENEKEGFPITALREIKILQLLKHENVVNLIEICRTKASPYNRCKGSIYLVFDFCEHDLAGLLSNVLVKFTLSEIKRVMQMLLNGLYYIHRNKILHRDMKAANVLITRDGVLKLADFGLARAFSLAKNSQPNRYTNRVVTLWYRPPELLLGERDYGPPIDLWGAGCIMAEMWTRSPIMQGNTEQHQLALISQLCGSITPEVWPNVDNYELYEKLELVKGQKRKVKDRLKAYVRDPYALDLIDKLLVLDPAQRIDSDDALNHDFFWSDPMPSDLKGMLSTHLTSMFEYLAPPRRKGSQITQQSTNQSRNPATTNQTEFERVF

Measured: number of time points

CC(C)n1cnnc1-c1cccc(NC(=O)c2cc3ccc(F)cc3[nH]2)n1 (2.5 µM)
1: [11]
3: [8] | [10] | [15]
4: [9]
0: all other assays above

O=C(Nc1nc2cccc(-c3ccc(CN4CCS(=O)(=O)CC4)cc3)n2n1)C1CC1 [Filgotinib] (2.5 µM)
0: all assays above

COc1cccc(Nc2ncnn3ccc(CN4CC[C@@H](N)[C@H](O)C4)c23)c1 (2.5 µM)
3: [9] | [10]
2: [15]
0: all other assays above

N#C/C(=C\c1ccc[nH]1)c1ccc(Cl)c(Cl)c1 (2.5 µM)
0: all assays above

Cc1cc([N+](=O)[O-])c(NS(=O)(=O)c2cccc(C(=O)O)c2)cc1-c1cccnc1 [Alofanib] (10 µM)
0: all assays above

Cc1cc(F)c(Nc2ncnc3cc(OCc4ccccc4)ccc23)cc1O (10 µM)
0: all assays above

CCS(=O)(=O)c1ccc(Oc2cc(O[C@@H](C)CO)cc(C(=O)Nc3ccn(C)n3)c2)cn1 (10 µM)
0: all assays above

COC[C@H]1Cn2cc(-c3nc(Nc4ccnn4C)ncc3C)nc2C(=O)N1Cc1ccc(F)c(F)c1 (10 µM)
0: all assays above

O=c1cc(-c2ccc(O)cc2)oc2cc(O)c(O)c(O)c12 [Scutellarein] (10 µM)
0: all assays above

O=C(CC(c1ccccc1)C(C(=O)O)C(=O)O)c1ccc(C(F)(F)F)cc1 (configuration not stated) (10 µM)
0: all assays above

CCn1c(-c2nonc2N)nc2c(C#CCO)ncc(OCCCN)c21 [AKT Kinase Inhibitor] (10 µM)
0: all assays above

C=CC(=O)N1CCN(c2nc(OC[C@@H]3CCCN3C)nc3c2CCN(c2cccc4cccc(C)c24)C3)C[C@@H]1CC#N (2.5 µM)
0: all assays above

CC[C@@H]1CN(C(=O)NCC(F)(F)F)C[C@@H]1c1cnc2cnc3[nH]ccc3n12 [Upadacitinib] (10 µM)
0: all assays above

CC(=O)NCC(=O)N[C@@H](C)C(=O)N[C@@H](CCC(N)=O)C(=O)N[C@@H](Cc1ccccc1)C(=O)N[C@@H](CO)C(=O)N[C@@H](CCCCN)C(=O)N[C@H](C(=O)N[C@@H](C)C(=O)N[C@@H](C)C(=O)N[C@@H](CCCCN)C(=O)O)[C@@H](C)O (10 µM)
0: all assays above

O=C1c2cccc(O)c2C(=O)c2c(O)cccc21 [Danthron] (10 µM)
0: all assays above

COC(=O)/C=C/c1ccc(O)c(OC)c1 [Ferulic acid methyl ester] (10 µM)
0: all assays above

C[C@@H](Nc1cc(F)cc(F)c1)c1cc(C(=O)N(C)C)cc2c(=O)cc(N3CCOCC3)oc12 (10 µM)
0: all assays above

Among those listed so far, 2 contain a CF3 group.
O=C(CC(c1ccccc1)C(C(=O)O)C(=O)O)c1ccc(C(F)(F)F)cc1 (configuration not stated) (10 µM)
0: all assays above

CC[C@@H]1CN(C(=O)NCC(F)(F)F)C[C@@H]1c1cnc2cnc3[nH]ccc3n12 [Upadacitinib] (10 µM)
0: all assays above

(continued)

O=C(c1ccc(NS(=O)(=O)c2cccc3cccnc23)cc1)N1CCN(CC2CC2)CC1 [Mitapivat] (10 µM)
0: all assays above

NC(=O)c1cccc2c(N[C@H](CN3CCC3)c3ccc(Cl)c(C(F)(F)F)c3)ncnc12 (10 µM)
0: all assays above

Cc1c(Br)c(Br)c2c3c1nc(N1CCNCC1)n3CCC2 [SEL120-34A (monohydrochloride)] (2.5 µM)
0: all assays above

O=c1[nH]nc(Sc2ncc([N+](=O)[O-])s2)n1-c1ccc2c(c1)OCCO2 (2.5 µM)
0: all assays above

C=CC(=O)N[C@H]1CCOC[C@H]1Nc1ncc2cc(-c3c(Cl)c(OC)cc(OC)c3Cl)ccc2n1 [Fisogatinib] (10 µM)
0: all assays above

C[C@H]1CNC(=O)c2cnn3ccc(nc23)N[C@H](C)c2cc(F)ccc2O1 [Repotrectinib] (2.5 µM)
1: [3] | [9] | [11] | [15]
2: [10]
0: all other assays above

O=C(O)[C@]1(Cc2cccc(Nc3nccs3)n2)CC[C@@H](Oc2cccc(Cl)c2F)CC1 (2.5 µM)
1: [11]
2: [8] | [9] | [10] | [15]
0: all other assays above

CCOC(=O)C1=C[C@]2(CC)CCCN3CCc4c(n1c1ccccc41)[C@@H]32 [Vinpocetine] (10 µM)
0: all assays above

COc1cc2nccc(Oc3ccc(NC(=O)Nc4ccc(F)cc4F)c(F)c3)c2cc1OC (10 µM)
1: [9]
2: [15]
0: all other assays above

Cc1ccc(CNC(=O)N2CCC[C@]3(CCN(Cc4ccc(Cl)c(Cl)c4)C3)C2)cc1 (10 µM)
0: all assays above

— the supplement of paper PMC12823440, “Inhibitors supercharge kinase turnover through native proteolytic circuits” (Nature, 2025)
